The values that follow come from publication PMC10710061.

These are yes or no findings as the source states them, for the method shown.

This assay deals with SAP05 D66A (purified, for ITC) (Aster Yellows phytoplasma strain Witches Broom (AYWB)). Kind of assay: condition: 20 μM SAP05 mutant in the cell, 200 μM SPL5^ZnF from the syringe; ITC; SPL5^ZnF from the syringe (250 μM for wild-type SAP05, 200 μM for the SAP05–Rpn10^vWA complex or SAP05 mutants) into 20 μM partner in the cell; 25 °C, 20 mM HEPES pH 7.5, 150 mM NaCl; one-site binding model; both purified.

B1: ZnF domain of Arabidopsis thaliana SPL5, residues 60 to 127 (domain or fragment, UniProt Q9S758 60-127)
chain: SRLCQVDRCTVNLTEAKQYYRRHRVCEVHAKASAATVAGVRQRFCQQCSRFHELPEFDEAKRSCRRRL
In the case of B1, the binding result was “no binding”.
